Values from PubChem BioAssay AID1259298 (Sanger Institute, 2017).
Screen: 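Kinome knock-downs lethal on their own or synergising with anchor drugs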 (primary screen). System: HT55 human colorectal cancer cell line. Knock-down reagent: siRNA pool against human genes. Conditions: anchor drug BYL719 1 µM, cetuximab 5 µg/ml or trametinib 10 nM, or DMSO vehicle alone. Measurement: 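Replicate-averaged viability versus wells of non-targeting pool; knock-down-only robust z-score; per-drug synergy score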. Direction: robust z-score, knock-down alone: higher = more cells remaining; low means essential gene. Rule for the call: 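Essential when the robust z-score for knock-down alone with DMSO is below -3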. Calls: active = essential (knock-down alone); inactive = no change alone.
Here is an unselected part of 794 deposited reagents. Of all reagents, 20 (2.5%) were called active. 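Calls rest only on the knock-down-alone score; drug synergy scores played no part in them.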 Not all columns of the deposit are shown. No sequences are given here. Not stated in the record: the amount of reagent, the time to read-out.

CDKN2B
- robust z-score, knock-down alone: 0.58
- activity call: inactive

CKB
- robust z-score, knock-down alone: 0.58
- activity call: inactive

EEF2K
- robust z-score, knock-down alone: 0.58
- activity call: inactive

PFKP
- robust z-score, knock-down alone: -0.695
- activity call: inactive

ACVR2A
- robust z-score, knock-down alone: -0.272
- activity call: inactive

TESK1
- robust z-score, knock-down alone: 0.58
- activity call: inactive

PAK5
- robust z-score, knock-down alone: 0.58
- activity call: inactive

ULK2
- robust z-score, knock-down alone: 0.58
- activity call: inactive

CDC42BPB
- robust z-score, knock-down alone: 0.58
- activity call: inactive

CKS2
- robust z-score, knock-down alone: 0.58
- activity call: inactive

CLK2
- robust z-score, knock-down alone: 0.58
- activity call: inactive

SBK1
- robust z-score, knock-down alone: 0.58
- activity call: inactive

PDGFRA
- robust z-score, knock-down alone: 0.58
- activity call: inactive

SGK3
- robust z-score, knock-down alone: 0.58
- activity call: inactive

BMPR2
- robust z-score, knock-down alone: -0.0882
- activity call: inactive

MAP2K7
- robust z-score, knock-down alone: -1.04
- activity call: inactive

CMPK1
- robust z-score, knock-down alone: 0.58
- activity call: inactive

UCK1
- robust z-score, knock-down alone: 0.58
- activity call: inactive

Records above whose target name starts with U or u (2):
ULK2
- robust z-score, knock-down alone: 0.58
- activity call: inactive

UCK1
- robust z-score, knock-down alone: 0.58
- activity call: inactive

The listing continues.
CIT
- robust z-score, knock-down alone: -0.649
- activity call: inactive

MAP3K6
- robust z-score, knock-down alone: 0.58
- activity call: inactive

KSR2
- robust z-score, knock-down alone: 0.58
- activity call: inactive

RELA
- robust z-score, knock-down alone: 0.442
- activity call: inactive

TNNI3K
- robust z-score, knock-down alone: 0.58
- activity call: inactive

STAG2
- robust z-score, knock-down alone: 0.58
- activity call: inactive

CAMKV
- robust z-score, knock-down alone: 0.58
- activity call: inactive

TBK1
- robust z-score, knock-down alone: 0.58
- activity call: inactive

PRKCI
- robust z-score, knock-down alone: -0.34
- activity call: inactive

NEK7
- robust z-score, knock-down alone: 0.58
- activity call: inactive
